Assay results as given in article PMC10011487.
These are yes or no findings as the source states them, for the method shown. In cells and extracts the contact can be indirect. Some entries that bind do so weakly or less than the wild type.

The chains behind the UniProt entries cited, without tags or fusion partners.
UniProt Q9Y6E0: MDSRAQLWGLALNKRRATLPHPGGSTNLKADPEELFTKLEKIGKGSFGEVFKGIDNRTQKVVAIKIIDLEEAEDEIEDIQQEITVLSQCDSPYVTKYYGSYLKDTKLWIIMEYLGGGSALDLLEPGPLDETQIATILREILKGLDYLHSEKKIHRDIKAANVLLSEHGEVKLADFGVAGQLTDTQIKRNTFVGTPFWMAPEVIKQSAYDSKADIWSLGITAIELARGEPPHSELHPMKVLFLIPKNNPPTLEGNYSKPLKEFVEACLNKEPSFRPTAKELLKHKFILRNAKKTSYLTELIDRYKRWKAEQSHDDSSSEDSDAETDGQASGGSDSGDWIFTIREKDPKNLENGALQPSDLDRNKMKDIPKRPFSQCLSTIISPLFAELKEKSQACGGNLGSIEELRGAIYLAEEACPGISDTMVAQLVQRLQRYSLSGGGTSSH
UniProt P40763: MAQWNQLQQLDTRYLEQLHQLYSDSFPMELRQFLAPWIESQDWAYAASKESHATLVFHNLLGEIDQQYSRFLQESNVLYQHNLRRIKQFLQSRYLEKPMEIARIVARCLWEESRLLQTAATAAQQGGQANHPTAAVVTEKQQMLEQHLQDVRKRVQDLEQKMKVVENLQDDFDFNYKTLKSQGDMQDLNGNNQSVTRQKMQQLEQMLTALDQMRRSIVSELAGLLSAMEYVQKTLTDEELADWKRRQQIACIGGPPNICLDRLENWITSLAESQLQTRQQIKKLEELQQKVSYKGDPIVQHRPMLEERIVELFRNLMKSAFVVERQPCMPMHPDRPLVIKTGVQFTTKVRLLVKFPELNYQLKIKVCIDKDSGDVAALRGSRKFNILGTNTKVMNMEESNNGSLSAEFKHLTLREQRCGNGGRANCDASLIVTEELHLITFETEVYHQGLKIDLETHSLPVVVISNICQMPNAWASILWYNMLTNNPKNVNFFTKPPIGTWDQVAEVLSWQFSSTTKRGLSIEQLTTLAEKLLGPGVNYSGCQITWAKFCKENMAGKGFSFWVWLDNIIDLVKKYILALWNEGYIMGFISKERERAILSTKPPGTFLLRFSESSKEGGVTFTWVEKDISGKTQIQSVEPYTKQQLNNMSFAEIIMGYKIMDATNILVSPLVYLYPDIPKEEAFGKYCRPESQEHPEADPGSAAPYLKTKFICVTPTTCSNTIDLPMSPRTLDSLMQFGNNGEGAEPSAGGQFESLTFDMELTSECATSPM

Biological target: Serine/threonine-protein kinase 24 (STK24) (human (endogenous in A549 / H226)) (UniProt Q9Y6E0)
Experiment: co-IP; whole cell lysates (NP-40 lysis buffer) of indicated NSCLC cells incubated overnight at 4 °C with primary antibody on Protein L Magnetic Beads, then Western blot

Question: “Signal transducer and activator of transcription 3 (STAT3) (from UniProt P40763 1-770)” was tested. Which binding did it give?
Answer: binds
